Laboratory results taken from patent US20090137577A1, “HETEROCYCLIC COMPOUNDS” (Pfizer Inc., priority 2007, published 2009).
Where “and” joins values, the source holds several entries; their conditions need not be identical. Equal values may be shown once. Structures were worked out from names or drawings and are uncertain.

Sequences of proteins named here, by UniProt entry; tags and fusion partners are left off. Residues count along the entry.
UniProt Q14416, 19-872 limits assumed: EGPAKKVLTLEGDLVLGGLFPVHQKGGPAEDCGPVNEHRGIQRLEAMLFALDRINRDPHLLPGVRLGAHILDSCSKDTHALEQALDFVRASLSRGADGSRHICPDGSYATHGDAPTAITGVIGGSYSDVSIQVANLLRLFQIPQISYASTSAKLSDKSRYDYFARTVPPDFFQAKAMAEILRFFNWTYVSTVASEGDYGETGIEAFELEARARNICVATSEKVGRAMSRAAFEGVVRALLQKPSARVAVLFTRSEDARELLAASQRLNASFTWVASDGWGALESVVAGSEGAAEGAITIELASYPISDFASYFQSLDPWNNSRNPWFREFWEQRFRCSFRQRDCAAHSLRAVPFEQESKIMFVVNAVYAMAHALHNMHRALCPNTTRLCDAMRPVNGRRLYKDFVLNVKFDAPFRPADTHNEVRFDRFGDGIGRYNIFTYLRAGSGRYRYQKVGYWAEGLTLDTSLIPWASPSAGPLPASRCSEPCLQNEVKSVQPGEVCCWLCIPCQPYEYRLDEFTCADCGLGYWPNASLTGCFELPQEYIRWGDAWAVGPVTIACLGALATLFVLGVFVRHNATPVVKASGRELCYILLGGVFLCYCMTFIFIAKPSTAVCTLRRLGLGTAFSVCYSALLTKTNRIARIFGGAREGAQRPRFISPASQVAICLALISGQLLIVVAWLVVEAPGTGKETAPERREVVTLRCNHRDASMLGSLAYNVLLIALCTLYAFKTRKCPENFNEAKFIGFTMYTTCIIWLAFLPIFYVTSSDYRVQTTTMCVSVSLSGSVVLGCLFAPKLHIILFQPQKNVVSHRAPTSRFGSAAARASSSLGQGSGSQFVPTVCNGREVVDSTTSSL

Molecular target: mGluR2 receptor (metabotropic glutamate receptor 2) (Homo sapiens, UniProt Q14416)
Experiment: mGluR2 potentiator screen (FLIPR, EC10-EC20 glutamate challenge);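 further: HEK cells stably expressing human mGluR2 with GL15 G protein, Fluo-4 calcium fluorescence read on FLIPR, compounds added before an EC10-EC20 glutamate challenge to detect potentiation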
Format: cell-based
Details: read-out: mGluR 2 EC50 (geometric mean)

Structure (SMILES): C[C@@H]1CN(Cc2ccc(-c3ccc4c(c3)CCO4)cc2)C(=O)O1
- EC50: 28.6 nM and 35.3 nM
